This note sets out measurements from the supplement of paper PMC6119338.

The list shows a part of the results. Repeats are few or missing, and single values can be far off.

This experiment has as its system Plasmodium berghei sporozoites. As to the kind of experiment: residual sporozoite gliding motility relative to DMSO control; higher = less inhibition of motility. The settings on record: 10 µM; incubation time 30 min. The method, then: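 GFP-expressing Plasmodium berghei salivary gland sporozoites (about 2000 per well, 384-well plate, RPMI with 3% BSA) were incubated 30 min with MMV Malaria Box compounds at 10 uM, then imaged at 1 Hz for 30 s. Sporozoites moving more than one parasite length were counted manually and expressed as percentage residual motility relative to DMSO controls. The pilot screen was a single assay per compound; apparent hits were repeated up to two more times. 'No observable inhibition' in the pilot screen is encoded as inactive (>50% residual, active false), a coarse placeholder rather than a measured value.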
`Oc1ccc(C(=C(Cl)Cl)c2ccc(O)cc2)cc1`: the “residual sporozoite gliding motility” value is above 50%.
For `CCCc1cc(O)c2c3c(c(=O)oc2c1)CN(C)CC3` the value was above 50%; for `CCOc1c(Cl)cc(CNC(C)C(O)c2ccccc2)cc1OC` (stereo unspecified), above 50%; for `COc1ccc(CN2CCN(Cc3ccccc3)CC2)c(O)c1`, above 50%.
Turning to `CCCCCCc1cc(O)c2c3c(c(=O)oc2c1)CCC(C)C3` (stereo unspecified), the “residual sporozoite gliding motility” value is above 50%.
For `Oc1ccc(Br)cc1CN1CCN(Cc2ccc(Cl)cc2)CC1` the value was above 50%.
Consider `Oc1ccc(Br)cc1CN1CCN(Cc2cccc(F)c2)CC1`, for which the “residual sporozoite gliding motility” value is above 50%.
Take `O=C(CCc1ccco1)NC1CCN(CC2(c3ccc(Cl)cc3)CCC2)CC1`: the “residual sporozoite gliding motility” value is above 50%.
In the case of `CN(N=O)C1=C(NC2CCCCC2)C(=O)c2ccccc2C1=O` it was above 50%.
For `COc1cc(CNCCc2ccc(Cl)cc2)cc(OC)c1O` the value was above 50%; for `CCOc1cc(CNC(C)C(O)c2ccccc2)cc(Cl)c1OCC` (stereo unspecified), above 50%.
